Test results: US20170158761A1 (EWHA UNIVERSITY INDUSTRY COLLABORATION FOUNDATION, published 2017)
These are yes or no findings as the source states them, for the method shown. Some binding calls cover weakened binding; strength is not graded here.

Columns and labels:
[1] = biological target: T1, f-TCTP (full-length TCTP, monomer TCTP) (Pan troglodytes (Chimpanzee)) (UniProt A5A6K2); test: ELISA on immobilised biotinylated dTBP2
T1 sequence: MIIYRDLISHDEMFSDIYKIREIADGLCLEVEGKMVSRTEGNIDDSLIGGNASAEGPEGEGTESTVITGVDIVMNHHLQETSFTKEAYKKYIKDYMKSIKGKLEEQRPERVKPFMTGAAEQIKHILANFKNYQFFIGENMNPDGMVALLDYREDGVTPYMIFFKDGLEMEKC

[2] = biological target: T1, f-TCTP (full-length TCTP, monomer TCTP) (Pan troglodytes (Chimpanzee)); test: ELISA: biotinylated dTBP2 (0.01 to 10 µM) on streptavidin plate, TCTP protein at 0.2 µg/ml, anti-HRF rabbit antibody detection

binding [1]: binds | binding [2]: binds
Binder: WYVYPSM (biotin conjugated to the COOH-terminus) [biotinylated dTBP2 (dTCTP binding peptide 2)]
